Reference: the supplement of paper PMC9135407
Where a name gives a salt, the structure may show the parent alone. ± gives the standard deviation of the averaged measurements. The list shows a part of the results. Baselines shift from plate to plate; read single values as rough.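 Assay uses culture-activated primary human stellate myofibroblasts; lipid droplet recovery indicates inactivation. Measured: proportion of Hoechst-counted cells over a plate-specific Bodipy cutoff, duplicate wells, DMSO and nortriptyline as per-plate negative and positive controls. A hit scores, control-normalized, above the plate's top-tenth-percentile nortriptyline wells or ranks among its three best wells. Final well concentrations not reported.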

Test system: primary human hepatic stellate cells (donor 1)
Test: percent Bodipy-positive cells; higher = more lipid droplet accumulation
Conditions: 48 h
[1] = library stock concentration: 3.33 mM
[2] = library stock concentration: 10 mM
[3] = library stock concentration: 1 mM
[4] = library stock concentration: 400 uM

## c1ccc(CNc2ncnc3nc[nH]c23)cc1 [Aminopurine, 6-benzyl]
  percent Bodipy-positive cells: 26.9 ± 4.5%

## CCN[C@@H]1C[C@H](N)[C@@H](O[C@H]2OC(CN)=CC[C@H]2N)[C@H](O)[C@H]1O[C@H]1OC[C@](C)(O)[C@H](NC)[C@H]1O [Netilmicin sulfate]
Library stock concentration: 3 mM
  percent Bodipy-positive cells: 8.85 ± 3.4%

## O=C1NC(=O)C(=Cc2ccc(-c3ccc(F)cc3)o2)S1 (stereo in doubt)
[1]
  percent Bodipy-positive cells: 4.67 ± 0.65%
[2]
  percent Bodipy-positive cells: 14.3 ± 0.53%

## O=C1NC(=O)C(c2ccccc2)(c2ccccc2)N1 [Phenytoin]
[1]
  percent Bodipy-positive cells: 26.7 ± 1.9%
Library stock concentration: 7.9 mM
  percent Bodipy-positive cells: 5.59 ± 1.7%
[2]
  percent Bodipy-positive cells: 10.3 ± 2.3%

## O=C1NC(=O)C(c2ccccc2)(c2ccccc2)N1 [5,5-Diphenylhydantoin]
[2]
  percent Bodipy-positive cells: 39.7 ± 16%

## O=C1NC(=O)C(c2ccccc2)(c2ccccc2)N1 [Dilantin]
[2]
  percent Bodipy-positive cells: 26.7 ± 3%

## CC(C)(O)c1ccccc1CC[C@@H](SCC1(CC(=O)O)CC1)c1cccc(/C=C/c2ccc3ccc(Cl)cc3n2)c1 [Montelukast (sodium salt)]
[3]
  percent Bodipy-positive cells: 17.5 ± 5.8%

## CC(C)(O)c1ccccc1CC[C@@H](SCC1(CC(=O)O)CC1)c1cccc(/C=C/c2ccc3ccc(Cl)cc3n2)c1 [Montelukast Sodium]
[1]
  percent Bodipy-positive cells: 10.5 ± 2.4%
[2]
  percent Bodipy-positive cells: 31.4 ± 7.3%

## CC(C)(O)c1ccccc1CC[C@@H](SCC1(CC(=O)O)CC1)c1cccc(/C=C/c2ccc3ccc(Cl)cc3n2)c1
Library stock concentration: 9.6 mM
  percent Bodipy-positive cells: 11.5 ± 0.83%
[2]
  percent Bodipy-positive cells: 14.5 ± 0.3%

## CN(C)C/C=C/C(=O)Nc1cc2c(Nc3ccc(F)c(Cl)c3)ncnc2cc1O[C@H]1CCOC1 [Afatinib  (TOVOK,  BIBW-2992) (0.4 mM)]
[4]
  percent Bodipy-positive cells: 71.4 ± 14%

## CN(C)C/C=C/C(=O)Nc1cc2c(Nc3ccc(F)c(Cl)c3)ncnc2cc1O[C@H]1CCOC1 [Afatinib (BIBW2992)]
[2]
  percent Bodipy-positive cells: 100%

## CN(C)C/C=C/C(=O)Nc1cc2c(Nc3ccc(F)c(Cl)c3)ncnc2cc1O[C@H]1CCOC1
Library stock concentration: 80 uM
  percent Bodipy-positive cells: 65 ± 19%
[4]
  percent Bodipy-positive cells: 61.2 ± 1.2%
[2]
  percent Bodipy-positive cells: 99.41 ± 0.84%

## CN(C)C/C=C/C(=O)Nc1cc2c(Nc3ccc(F)c(Cl)c3)ncnc2cc1O[C@H]1CCOC1 [Afatinib  (TOVOK,  BIBW-2992) (10 mM)]
[2]
  percent Bodipy-positive cells: 100%

## CN1Cc2c(N)cccc2C(c2ccccc2)C1 (stereo not drawn) [Nomifensine maleate]
  percent Bodipy-positive cells: 66 ± 11%

## O=C1C(c2ccccc2)N(c2ccc(Br)cc2)C(=O)N1c1ccc(Br)cc1 (stereo not drawn)
[3]
  percent Bodipy-positive cells: 9.97 ± 1.5%

## O=C(Nc1ccccc1)Nc1ccc(-c2ccc(C(=O)[C@@H]3CCC[C@H]3C(=O)O)cc2)cc1
[1]
  percent Bodipy-positive cells: 9.93 ± 4.7%
[2]
  percent Bodipy-positive cells: 13.2 ± 5%

## FC(F)(F)COCC(F)(F)F [Flurothyl]
Library stock concentration: 11 mM
  percent Bodipy-positive cells: 4.22 ± 3.4%

## OC[C@@H](O)[C@@H](O)[C@@H](O)CO [Ribitol]
[1]
  percent Bodipy-positive cells: 13.6 ± 0.87%
[2]
  percent Bodipy-positive cells: 16.8 ± 1.3%

## CCCCCCCCCCCCC/C=C/[C@@H](O)[C@@H](N)CO [Sphingosine]
[3]
  percent Bodipy-positive cells: 11.7 ± 12%
